Results: article PMC9243173

Sequences of proteins named here, by UniProt entry; tags and fusion partners are left off.
UniProt P28340: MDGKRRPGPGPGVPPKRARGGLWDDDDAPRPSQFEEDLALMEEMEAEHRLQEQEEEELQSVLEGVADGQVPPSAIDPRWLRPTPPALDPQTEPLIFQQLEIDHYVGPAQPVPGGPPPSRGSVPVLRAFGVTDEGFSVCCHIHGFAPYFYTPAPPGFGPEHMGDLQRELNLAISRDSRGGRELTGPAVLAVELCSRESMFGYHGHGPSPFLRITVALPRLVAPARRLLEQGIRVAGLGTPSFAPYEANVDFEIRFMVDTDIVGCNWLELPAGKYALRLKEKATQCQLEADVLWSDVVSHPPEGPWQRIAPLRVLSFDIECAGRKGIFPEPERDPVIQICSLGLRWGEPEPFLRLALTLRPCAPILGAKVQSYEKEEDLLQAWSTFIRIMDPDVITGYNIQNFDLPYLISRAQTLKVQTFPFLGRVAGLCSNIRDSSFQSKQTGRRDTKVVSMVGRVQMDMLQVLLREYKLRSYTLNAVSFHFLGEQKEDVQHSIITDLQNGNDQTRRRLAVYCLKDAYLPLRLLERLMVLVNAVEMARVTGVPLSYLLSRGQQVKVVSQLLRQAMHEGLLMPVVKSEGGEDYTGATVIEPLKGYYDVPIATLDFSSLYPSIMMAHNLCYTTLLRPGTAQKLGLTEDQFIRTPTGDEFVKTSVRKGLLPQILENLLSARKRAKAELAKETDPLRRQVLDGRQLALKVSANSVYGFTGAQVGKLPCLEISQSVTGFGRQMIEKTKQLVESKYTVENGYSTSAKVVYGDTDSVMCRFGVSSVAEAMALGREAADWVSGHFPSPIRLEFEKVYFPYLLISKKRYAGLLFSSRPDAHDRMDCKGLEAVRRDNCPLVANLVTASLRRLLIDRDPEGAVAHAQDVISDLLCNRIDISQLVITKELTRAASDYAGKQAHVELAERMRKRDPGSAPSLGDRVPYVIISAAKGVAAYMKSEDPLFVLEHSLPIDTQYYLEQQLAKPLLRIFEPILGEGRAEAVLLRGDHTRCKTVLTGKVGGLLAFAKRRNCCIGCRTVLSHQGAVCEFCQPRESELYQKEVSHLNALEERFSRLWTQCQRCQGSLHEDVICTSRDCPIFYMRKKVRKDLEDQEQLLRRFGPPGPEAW

Target: T1, 3HA-3FLAG-tagged NUBP2 (nucleotide-binding protein 2) (human) (UniProt Q9Y5Y2)
T1 sequence: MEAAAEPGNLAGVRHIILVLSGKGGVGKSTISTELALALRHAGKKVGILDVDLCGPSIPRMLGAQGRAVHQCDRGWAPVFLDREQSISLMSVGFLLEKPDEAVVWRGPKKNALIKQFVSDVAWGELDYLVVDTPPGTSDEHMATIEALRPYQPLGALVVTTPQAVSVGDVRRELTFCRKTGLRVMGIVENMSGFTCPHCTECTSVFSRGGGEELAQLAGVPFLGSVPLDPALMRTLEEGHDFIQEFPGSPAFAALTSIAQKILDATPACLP
Experiment: affinity purification with mass spectrometry; anti-HA beads on lysates of Flp-In 293 cells expressing the 3HA-3FLAG-tagged bait (NUBP2, wildtype or mutant CIAO3); targeted proteomics assay (parallel reaction monitoring) of CIA components and substrates; CIAO3 purifications normalised to CIAO3; wildtype CIAO3 cells also treated with FAC or DFO for 8 h

In the case of POLD1 (from UniProt P28340 1-1107), the binding is reported as “binds”.

Results are given in words; binding and its absence hold for the method and conditions named. Binding seen in cells or lysates may run through a third protein. These calls come from enrichment with a bait or labelling near it, and not all partners need be listed. Tags and fused reporters may be left off the sequences shown.
